Measurements from US8728442B2, “Method of controlling the growth of microorganisms by a composition containing isolated or in vitro synthesized nitrosoamides” (Bayer CropScience LP, priority 2009, dated 2014).
For at least one compound, name, drawing or mass did not settle the structure.

Columns and labels:
Rhizoctonia solani = experiment: Soil damping-off, emergence of broccoli (Brassica) seedlings; assay type: in vivo; details: synthetic compound at varying doses (mg per liter soil); soil infested with Rhizoctonia
[1] = Activity of heat-treated Compound 1; details: biochemical formulation or synthetic
yeast cells = experiment: Yeast cell cycle analysis by flow cytometer; details: log phase cells treated one hour, washed, grown another hour, SYBR green
[2] = Temperature and pH lability (GC-MS of ethanol eluate); assay type: physicochemical
Method: As shown at a standard GC/MS injection temperature of 250° C., N-methyl N-nitroso isobutyramide is not detected as it most likely has broken down into other compounds. Therefore, this compound has never been previously identified.

Penicillium expansum = experiment: Post-harvest apple box fumigation; assay type: in vivo; details: 11 L box, red delicious apples; higher concentration per volume of air; solution 0.915 mg/mL
[3] = test system: Pseudomonas aeruginosa PAO1; experiment: Lubbock biofilm model: relative ratio of bacterium by qPCR; details: to be inhibited in comparison to Enterococcus faecalis
[4] = test system: Staphylococcus aureus Mu50; experiment: as above; details: concentration dependent

CC(C)C(=O)N(C)N=O [Compound 1, N-methyl N-nitrosoisobutyramide]
control of damping off, % emergence of Brassica seedlings (Rhizoctonia solani): able to reduce the Rhizoctonia infection and allow Brassica seedlings to emerge from the soil | activity after heat treatment [1]: lost activity | yeast cell cycle after treatment (yeast cells): arrested at S phase | detection by GC/MS ([2]; injection temperature less than 175° C.): significant amounts | heat sensitivity ([2]; standard GC injection temperature (220° C.) decomposing into isobutyric acid): heat sensitive | detection by GC/MS ([2]; standard GC/MS injection temperature of 250° C.): not detected | severity of infection of apples (Penicillium expansum): significantly improves removing the infection from the apples | effect on Pseudomonas aeruginosa in biofilm [3]: trend effect | impact on the MRSA strain of Staphylococcus aureus in biofilm [4]: increased impact
